Results from patent US20030162714A1 (Pfizer, published 2003).
No constants are given. Whether binding was seen depends on the method and setting. In cells and extracts the contact can be indirect. Some entries that bind do so weakly or less than the wild type. For some of these results: Sequences can lack the tags named with a protein. Each block holds one molecule with its values, some of them ahead of it.

Key:
[1] = target: T1, mature GDF-8 isolated from human serum (human) (UniProt O14793); assay: co-purification with mature GDF-8 on JA16 beads from human serum, nanoflow LC-MS/MS
T1 sequence (looked up): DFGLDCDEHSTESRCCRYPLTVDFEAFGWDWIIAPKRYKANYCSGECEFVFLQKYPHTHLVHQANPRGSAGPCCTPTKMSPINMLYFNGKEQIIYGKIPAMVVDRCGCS

[2] = target: T1, mature GDF-8 isolated from human serum (human); assay: co-purification with GDF-8 on JA16 beads from human serum, LC-MS/MS
[3] = target: T2, recombinant purified GDF-8 (UniProt O14793 267-375, limits assumed); assay: co-immunoprecipitation with GDF-8 on JA16 beads, western blot
T2 sequence (looked up): T1 sequence (looked up)

[4] = target: T3, mature GDF-8 isolated from normal mouse serum (mouse) (UniProt O08689); assay: large scale JA16-bead purification from mouse serum, nanoflow-LC-MS/MS
T3 sequence (looked up): T1 sequence (looked up)

[5] = target: T3, mature GDF-8 isolated from normal mouse serum (mouse); assay: co-purification with GDF-8 on JA16 beads from mouse serum, MS/MS and western blot
[6] = target: T3, mature GDF-8 isolated from normal mouse serum (mouse); assay: co-purification with GDF-8 on JA16 beads from mouse serum, MS/MS
[7] = target: T3, mature GDF-8 isolated from normal mouse serum (mouse); assay: co-purification with GDF-8 on JA16 beads from serum, LC-MS/MS
[8] = target: T3, mature GDF-8 isolated from normal mouse serum (mouse); assay: co-purification with GDF-8 on JA16 beads from mouse serum, LC-MS/MS against Celera database
[9] = target: T2, recombinant purified GDF-8; assay: co-immunoprecipitation with recombinant proteins
[10] = target: T2, recombinant purified GDF-8; assay: co-immunoprecipitation (JA16 or anti-V5 beads), western blot
[11] = target: T4, recombinant purified GDF-8 propeptide (UniProt O14793); assay: co-immunoprecipitation (anti-V5 beads), western blot
T4 sequence (looked up): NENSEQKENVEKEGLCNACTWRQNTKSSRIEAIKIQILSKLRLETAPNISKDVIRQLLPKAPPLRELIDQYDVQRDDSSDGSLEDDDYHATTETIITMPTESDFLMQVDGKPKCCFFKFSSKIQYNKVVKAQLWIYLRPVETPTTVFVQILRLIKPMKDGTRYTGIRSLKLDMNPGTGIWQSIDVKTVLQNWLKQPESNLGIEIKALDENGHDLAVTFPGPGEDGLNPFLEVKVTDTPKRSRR

[12] = target: T4, recombinant purified GDF-8 propeptide; assay: co-immunoprecipitation with GASP1-V5-His on anti-V5 beads, western blot
[13] = target: T2, recombinant purified GDF-8; assay: as above

binding [1]: binds
binding [2]: binds
Molecule: GDF-8 propeptide from human serum (from UniProt O14793 24-266)

binding [3]: binds
Molecule: recombinant purified GDF-8 propeptide (from UniProt O14793 24-266)

binding [1]: binds
binding [2]: binds
B1: human FLRG from human serum (protein, UniProt O95633 27-263, looked up)
chain: MGSGNPAPGGVCWLQQGQEATCSLVLQTDVTRAECCASGNIDTAWSNLTHPGNKINLLGFLGLVHCLPCKDSCDGVECGPGKACRMLGGRPRCECAPDCSGLPARLQVCGSDGATYRDECELRAARCRGHPDLSVMYRGRCRKSCEHVVCPRPQSCVVDQTGSAHCVVCRAAPCPVPSSPGQELCGNNNVTYISSCHMRQATCFLGRSIGVRHAGSCAGTPEEPPGGESAEEEENFV

binding [4]: binds
binding [5]: binds
B2: follistatin-like related gene (FLRG) protein from normal mouse serum (protein, UniProt Q9EQC7 24-256, looked up)
chain: VMGSEDSVPGGVCWLQQGREATCSLVLKTRVSREECCASGNINTAWSNFTHPGNKISLLGFLGLVHCLPCKDSCDGVECGPGKACRMLGGRPHCECVPNCEGLPAGFQVCGSDGATYRDECELRTARCRGHPDLRVMYRGRCQKSCAQVVCPRPQSCLVDQTGSAHCVVCRAAPCPVPSNPGQELCGNNNVTYISSCHLRQATCFLGRSIGVRHPGICTGGPKVPAEEEENFV

binding [4]: binds
binding [5]: binds
B3: GDF-8 propeptide from normal mouse serum (protein, UniProt O08689 25-267, looked up)
chain: NEGSEREENVEKEGLCNACAWRQNTRYSRIEAIKIQILSKLRLETAPNISKDAIRQLLPRAPPLRELIDQYDVQRDDSSDGSLEDDDYHATTETIITMPTESDFLMQADGKPKCCFFKFSSKIQYNKVVKAQLWIYLRPVKTPTTVFVQILRLIKPMKDGTRYTGIRSLKLDMSPGTGIWQSIDVKTVLQNWLKQPESNLGIEIKALDENGHDLAVTFPGPGEDGLNPFLEVKVTDTPKRSRR

binding [6]: binds
binding [4]: binds
binding [7]: binds
binding [8]: binds
B4: GDF-associated serum protein 1 (GASP1) from normal mouse serum (protein)
chain: LPPIRYSHAGICPNDMNPNLWVDAQSTCKRECETDQECETYEKCCPNVCGTKSCVAARYMDVKGKKGPVGMPKEATCDHFMCLQQGSECDIWDGQPVCKCKDRCEKEPSFTCASDGLTYYNRCFMDAEACSKGITLSVVTCRYHFTWPNTSPPPPETTVHPTTASPETLGLDMAAPALLNHPVHQSVTVGETVSFLCDVVGRPRPELTWEKQLEDRENVVMRPNHVRGNVVVTNIAQLVIYNVQPQDAGIYTCTARNVAGVLRADFPLSVVRGGQARATSESSLNGTAFPATECLKPPDSEDCGEEQTRWHFDAQANNCLTFTFGHCHHNLNHFETYEACMLACMSGPLATCSLPALQGPCKAYVPRWAYNSQTGLCQSFVYGGCEGNGNNFESREACEESCPFPRGNQHCRACKPRQKLVTSFCRSDFVILGRVSELTEEQDSGRALVTVDEVLKDEKMGLKFLGREPLEVTLLHVDWTCPCPNVTVGETPLIIMGEVDGGMAMLRPDSFVGASSTRRVRKLREVMYKKTCDVLKDFLGLQ

binding [9]: binds
binding [10]: binds
binding [3]: binds
binding [11]: binds
binding [12]: binds
binding [13]: binds
B5: mouse GASP1 cloned with a C-terminal V5-His tag (GASP1-V5-His) (other, not shown: small tags and cut ends)
chain: B4 chain
